The results in this text go back to publication PMC3668578.

These are yes or no findings as the source states them, for the method shown.

Assay [1] has as its target PatF from Prochloron didemni (native) (Prochloron didemni) (UniProt Q52QJ2). Description: SEC; Superdex 75 gel filtration in 150 mM NaCl, 10 mM HEPES pH 7.4, 1 mM TCEP, 10% glycerol; self-association of purified PatF; both purified.
Assay [2] addresses L-Selenomethionine-labelled (SeMet) PatF from Prochloron didemni (Prochloron didemni) (UniProt Q52QJ2). Described as above.

B1: PatF from Prochloron didemni (native) (protein, UniProt Q52QJ2 2-320)
chain: DLIDRLQNNQRKDRRLQFVRTHQEAFDVKPTFPLPLFEEAILEIEGSCSVESSCQVEGDRLQGGRYEVCNNQGTTWPESLTHAFKLLDKIDSQLGVRINRDSFDRFAAAHVNSRKIINNTIGVHLGSKLEDSSVMLYIHIKPEEDTEELARTALVLDGGRYSDELTRVLLRDTMVIGFELFFDGRSRVDLGPCAPGKSGTLKMKGKHLEQYTQKNLSRKVNSIFREGYLFGAFFSKTRVEPILFFYHSIIKDLPKYFTFNSLGDKIYNFCQSQGCITDVAIAVTETELEKSRLENFCFYYDQWDECKPSSDYDTERHLHRS
On to B1, for which, in assay [1], the binding result was “no binding”.

B2: L-Selenomethionine-labelled (SeMet) PatF from Prochloron didemni (protein, UniProt Q52QJ2 2-320)
chain: DLIDRLQNNQRKDRRLQFVRTHQEAFDVKPTFPLPLFEEAILEIEGSCSVESSCQVEGDRLQGGRYEVCNNQGTTWPESLTHAFKLLDKIDSQLGVRINRDSFDRFAAAHVNSRKIINNTIGVHLGSKLEDSSVMLYIHIKPEEDTEELARTALVLDGGRYSDELTRVLLRDTMVIGFELFFDGRSRVDLGPCAPGKSGTLKMKGKHLEQYTQKNLSRKVNSIFREGYLFGAFFSKTRVEPILFFYHSIIKDLPKYFTFNSLGDKIYNFCQSQGCITDVAIAVTETELEKSRLENFCFYYDQWDECKPSSDYDTERHLHRS
modifications: three selenomethionine residues (confirmed by mass spectrometry)
For B2, the binding result in assay [2] is recorded as “no binding”.
